Consider two molecules from article PMC8429728, “TNK1 is a ubiquitin-binding and 14-3-3-regulated kinase that can be targeted to block tumor growth” (Nature Communications, 2021).

No constants are given. Whether binding was seen depends on the method and setting. Binding seen in cells or lysates may run through a third protein. These calls come from enrichment with a bait or labelling near it, and not all partners need be listed. Tags and fused reporters may be left off the sequences shown.

Experiment [1] addresses T1, FLAG-TNK1 (wild type) (human) (UniProt Q13470).
T1 sequence: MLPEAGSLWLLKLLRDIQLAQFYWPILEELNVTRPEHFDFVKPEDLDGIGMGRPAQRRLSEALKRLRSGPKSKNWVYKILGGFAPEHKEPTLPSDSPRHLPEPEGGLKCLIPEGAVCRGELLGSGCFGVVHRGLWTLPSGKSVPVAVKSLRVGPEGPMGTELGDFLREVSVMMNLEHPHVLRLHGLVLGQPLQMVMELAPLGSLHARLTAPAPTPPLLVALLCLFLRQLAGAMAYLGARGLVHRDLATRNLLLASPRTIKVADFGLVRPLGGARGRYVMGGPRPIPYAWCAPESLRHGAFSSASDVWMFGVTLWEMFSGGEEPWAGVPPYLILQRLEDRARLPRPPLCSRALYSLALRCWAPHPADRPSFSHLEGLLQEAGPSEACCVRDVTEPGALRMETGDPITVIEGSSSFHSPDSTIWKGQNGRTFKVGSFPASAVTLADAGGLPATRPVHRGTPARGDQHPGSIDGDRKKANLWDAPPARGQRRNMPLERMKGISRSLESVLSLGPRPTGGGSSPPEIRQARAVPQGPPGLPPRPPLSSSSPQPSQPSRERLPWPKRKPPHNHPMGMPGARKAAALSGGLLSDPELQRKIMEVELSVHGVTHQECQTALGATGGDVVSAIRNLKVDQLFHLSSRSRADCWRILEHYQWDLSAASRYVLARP
Briefly: affinity purification with mass spectrometry; direct co-IP of FLAG-TNK1 followed by LC-MS/MS.

Experiment [2] addresses T2, TNK1-BirA-HA (human) (UniProt Q13470).
T2 sequence: T1 sequence
The experiment in a line: proximity labelling; BioID: TNK1-BirA-HA in HEK-293T, 50 nM biotin for 10 h, lysis in RIPA without SDS, streptavidin agarose, LC-MS/MS.

B1: 14-3-3 γ (protein, UniProt P61981 1-247)
chain: MVDREQLVQKARLAEQAERYDDMAAAMKNVTELNEPLSNEERNLLSVAYKNVVGARRSSWRVISSIEQKTSADGNEKKIEMVRAYREKIEKELEAVCQDVLSLLDNYLIKNCSETQYESKVFYLKMKGDYYRYLAEVATGEKRATVVESSEKAYSEAHEISKEHMQPTHPIRLGLALNYSVFYYEIQNAPEQACHLAKTAFDDAIAELDTLNEDSYKDSTLIMQLLRDNLTLWTSDQQDDDGGEGNN
In the case of B1, the binding result in experiment [1] and in experiment [2] was “binds” in each case.

B2: 14-3-3 θ (protein, UniProt P27348 1-245)
chain: MEKTELIQKAKLAEQAERYDDMATCMKAVTEQGAELSNEERNLLSVAYKNVVGGRRSAWRVISSIEQKTDTSDKKLQLIKDYREKVESELRSICTTVLELLDKYLIANATNPESKVFYLKMKGDYFRYLAEVACGDDRKQTIDNSQGAYQEAFDISKKEMQPTHPIRLGLALNFSVFYYEILNNPELACTLAKTAFDEAIAELDTLNEDSYKDSTLIMQLLRDNLTLWTSDSAGEECDAAEGAEN
B2: the binding entry in experiment [1] and in experiment [2] was “binds” in each case.
